Drawing on article PMC6868145, this text covers binding for two substances.

Protein sequences, listed by entry. Tags and fused reporters are not part of them. Lines headed by an entry give the natural chain unless they say otherwise; changes in a name come on top. Chains listed by the source or under a name are the forms on record and can include a tag or linker.
PAK1-full (full-length PAK1), tagged with eGFP or mCherry (Q13153-2, form named): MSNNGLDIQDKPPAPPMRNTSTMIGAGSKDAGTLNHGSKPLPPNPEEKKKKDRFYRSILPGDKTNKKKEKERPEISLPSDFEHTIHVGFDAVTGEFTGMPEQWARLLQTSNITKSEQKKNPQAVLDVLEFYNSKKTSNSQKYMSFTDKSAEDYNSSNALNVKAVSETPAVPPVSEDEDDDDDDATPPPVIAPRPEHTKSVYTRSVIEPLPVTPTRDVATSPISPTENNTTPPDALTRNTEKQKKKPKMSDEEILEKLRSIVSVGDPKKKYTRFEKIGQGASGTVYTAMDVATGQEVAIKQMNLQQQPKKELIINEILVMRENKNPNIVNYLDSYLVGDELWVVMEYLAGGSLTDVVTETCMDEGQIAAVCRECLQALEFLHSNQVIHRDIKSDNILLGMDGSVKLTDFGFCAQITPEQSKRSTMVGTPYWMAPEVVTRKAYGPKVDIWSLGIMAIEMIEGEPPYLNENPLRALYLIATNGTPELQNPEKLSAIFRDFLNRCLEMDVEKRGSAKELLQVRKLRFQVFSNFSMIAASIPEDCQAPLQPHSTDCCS
UniProt Q13177: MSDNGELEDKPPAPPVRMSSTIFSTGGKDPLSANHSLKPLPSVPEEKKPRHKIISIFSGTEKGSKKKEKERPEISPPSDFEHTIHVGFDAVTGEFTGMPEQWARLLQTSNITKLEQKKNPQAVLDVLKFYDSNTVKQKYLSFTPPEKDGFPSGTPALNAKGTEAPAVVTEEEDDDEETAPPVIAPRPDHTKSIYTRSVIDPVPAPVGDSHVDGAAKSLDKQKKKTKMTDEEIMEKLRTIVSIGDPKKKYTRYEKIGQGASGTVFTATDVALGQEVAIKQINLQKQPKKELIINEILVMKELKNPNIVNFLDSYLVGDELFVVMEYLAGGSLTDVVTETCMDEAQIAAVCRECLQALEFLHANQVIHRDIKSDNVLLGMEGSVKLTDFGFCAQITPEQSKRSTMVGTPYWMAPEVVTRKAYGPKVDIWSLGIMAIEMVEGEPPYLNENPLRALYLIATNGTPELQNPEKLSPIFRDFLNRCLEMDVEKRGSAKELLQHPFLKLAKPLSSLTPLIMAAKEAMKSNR

The target in assay [1] is PAK1-full (full-length PAK1), tagged with eGFP or mCherry (human) (UniProt Q13153). The assay is described as follows: co-IP; HEK293T cells co-transfected with eGFP- and mCherry-tagged PAK isoforms; GFP- or RFP-Trap nanobody beads, 1 h at 4 °C; lysis buffer 10 mM Tris/Cl pH 7.5, 150 mM NaCl, 0.5 mM EDTA, 0.5% NP-40; co-precipitate detected through the complementary label (anti-RFP or anti-GFP blot); PAK1-full with PAK2 also tested with inverse labelling and after Q-VD-OPh pretreatment.

The target in assay [2] is PAK2, tagged with eGFP or mCherry (human) (UniProt Q13177). The description is as above.

Results are given in words; binding and its absence hold for the method and conditions named. Binding seen in cells or lysates may run through a third protein. Some binding calls cover weakened binding; strength is not graded here.

With “PAK1-full (full-length PAK1), tagged with eGFP or mCherry (from UniProt Q13153-2 1-553) (enzyme)”, the binding entry in assay [1] is “binds”.
Turning to “PAK2, tagged with eGFP or mCherry (from UniProt Q13177 1-524) (enzyme)”, the binding entry in assay [2] and in assay [1] was “binds” each time.
